# Test results reported in the supplement of paper PMC12067093, “Discovery and optimisation of a covalent ligand for TRIM25 and its application to targeted protein ubiquitination” (Chemical Science, 2025).
# Sequences of proteins named here, by UniProt entry; tags and fusion partners are left off. A change or cut given only in a name is not applied to a line headed by its entry.
# UniProt O00329: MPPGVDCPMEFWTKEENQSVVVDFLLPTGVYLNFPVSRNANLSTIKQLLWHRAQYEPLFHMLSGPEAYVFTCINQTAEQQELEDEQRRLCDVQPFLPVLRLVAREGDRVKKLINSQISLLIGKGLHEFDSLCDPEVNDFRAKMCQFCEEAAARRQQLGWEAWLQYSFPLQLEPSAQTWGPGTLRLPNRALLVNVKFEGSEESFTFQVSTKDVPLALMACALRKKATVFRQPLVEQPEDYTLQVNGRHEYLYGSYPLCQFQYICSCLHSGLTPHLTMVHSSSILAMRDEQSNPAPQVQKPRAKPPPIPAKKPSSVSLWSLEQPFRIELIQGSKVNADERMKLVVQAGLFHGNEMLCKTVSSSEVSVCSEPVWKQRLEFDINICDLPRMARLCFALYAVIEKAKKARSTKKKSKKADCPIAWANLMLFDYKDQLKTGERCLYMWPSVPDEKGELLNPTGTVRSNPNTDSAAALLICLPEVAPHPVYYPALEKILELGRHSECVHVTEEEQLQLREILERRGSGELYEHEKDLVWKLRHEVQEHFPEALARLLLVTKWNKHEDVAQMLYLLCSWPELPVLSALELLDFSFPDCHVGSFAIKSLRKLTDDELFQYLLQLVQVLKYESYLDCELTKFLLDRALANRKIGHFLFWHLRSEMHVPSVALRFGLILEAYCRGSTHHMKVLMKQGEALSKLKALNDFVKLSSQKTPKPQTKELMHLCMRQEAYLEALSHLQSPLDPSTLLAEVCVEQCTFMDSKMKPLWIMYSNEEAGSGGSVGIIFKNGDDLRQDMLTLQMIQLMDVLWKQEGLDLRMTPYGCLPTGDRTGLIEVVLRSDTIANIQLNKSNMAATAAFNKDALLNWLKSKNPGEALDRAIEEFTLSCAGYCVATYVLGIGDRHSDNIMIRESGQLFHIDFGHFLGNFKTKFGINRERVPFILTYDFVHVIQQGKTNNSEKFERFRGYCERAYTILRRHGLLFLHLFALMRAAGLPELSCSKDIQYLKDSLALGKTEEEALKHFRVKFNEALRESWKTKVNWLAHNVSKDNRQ
# UniProt Q8N490: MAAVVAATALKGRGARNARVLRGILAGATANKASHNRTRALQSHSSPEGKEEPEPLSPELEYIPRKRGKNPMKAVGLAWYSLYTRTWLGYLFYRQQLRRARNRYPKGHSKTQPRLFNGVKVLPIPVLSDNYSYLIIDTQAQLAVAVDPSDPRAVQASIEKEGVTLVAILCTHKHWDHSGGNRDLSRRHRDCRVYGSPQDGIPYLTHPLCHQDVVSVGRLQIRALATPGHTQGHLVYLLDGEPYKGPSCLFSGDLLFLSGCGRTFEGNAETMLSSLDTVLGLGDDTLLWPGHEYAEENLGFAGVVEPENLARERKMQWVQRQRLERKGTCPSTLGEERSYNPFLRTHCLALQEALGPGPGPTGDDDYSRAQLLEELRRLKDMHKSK
# UniProt Q01970, whole entry, looked up: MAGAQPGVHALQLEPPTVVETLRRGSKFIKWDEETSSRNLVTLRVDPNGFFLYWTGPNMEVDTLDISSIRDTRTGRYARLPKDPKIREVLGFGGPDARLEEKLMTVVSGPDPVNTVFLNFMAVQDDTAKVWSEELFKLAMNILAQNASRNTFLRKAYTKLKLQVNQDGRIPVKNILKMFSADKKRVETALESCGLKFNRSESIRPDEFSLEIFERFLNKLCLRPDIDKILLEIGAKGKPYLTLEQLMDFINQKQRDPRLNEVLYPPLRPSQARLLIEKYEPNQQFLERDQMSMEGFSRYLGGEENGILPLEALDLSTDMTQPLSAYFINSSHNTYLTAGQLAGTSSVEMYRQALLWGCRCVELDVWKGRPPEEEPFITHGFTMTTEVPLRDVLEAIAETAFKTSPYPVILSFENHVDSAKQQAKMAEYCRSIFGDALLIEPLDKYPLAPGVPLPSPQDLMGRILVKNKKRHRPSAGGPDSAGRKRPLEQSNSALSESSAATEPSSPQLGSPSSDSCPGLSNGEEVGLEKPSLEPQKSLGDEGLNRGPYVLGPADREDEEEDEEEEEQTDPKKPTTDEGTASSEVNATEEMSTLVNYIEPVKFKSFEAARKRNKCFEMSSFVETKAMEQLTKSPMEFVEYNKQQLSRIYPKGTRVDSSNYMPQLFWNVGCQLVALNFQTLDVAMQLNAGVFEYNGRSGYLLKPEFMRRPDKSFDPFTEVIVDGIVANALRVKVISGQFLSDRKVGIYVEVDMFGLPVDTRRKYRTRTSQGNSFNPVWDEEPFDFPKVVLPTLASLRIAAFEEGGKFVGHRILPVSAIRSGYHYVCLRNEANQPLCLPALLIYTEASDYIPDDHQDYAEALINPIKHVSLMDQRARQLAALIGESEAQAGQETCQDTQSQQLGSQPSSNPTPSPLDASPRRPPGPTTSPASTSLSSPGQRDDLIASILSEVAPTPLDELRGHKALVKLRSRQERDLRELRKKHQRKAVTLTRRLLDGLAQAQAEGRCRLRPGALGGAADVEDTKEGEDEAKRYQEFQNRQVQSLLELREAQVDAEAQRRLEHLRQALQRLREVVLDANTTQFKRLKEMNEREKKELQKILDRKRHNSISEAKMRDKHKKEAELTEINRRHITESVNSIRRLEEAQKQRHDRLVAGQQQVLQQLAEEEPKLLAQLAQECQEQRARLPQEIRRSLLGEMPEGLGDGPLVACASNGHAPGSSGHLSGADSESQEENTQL
# UniProt P42338: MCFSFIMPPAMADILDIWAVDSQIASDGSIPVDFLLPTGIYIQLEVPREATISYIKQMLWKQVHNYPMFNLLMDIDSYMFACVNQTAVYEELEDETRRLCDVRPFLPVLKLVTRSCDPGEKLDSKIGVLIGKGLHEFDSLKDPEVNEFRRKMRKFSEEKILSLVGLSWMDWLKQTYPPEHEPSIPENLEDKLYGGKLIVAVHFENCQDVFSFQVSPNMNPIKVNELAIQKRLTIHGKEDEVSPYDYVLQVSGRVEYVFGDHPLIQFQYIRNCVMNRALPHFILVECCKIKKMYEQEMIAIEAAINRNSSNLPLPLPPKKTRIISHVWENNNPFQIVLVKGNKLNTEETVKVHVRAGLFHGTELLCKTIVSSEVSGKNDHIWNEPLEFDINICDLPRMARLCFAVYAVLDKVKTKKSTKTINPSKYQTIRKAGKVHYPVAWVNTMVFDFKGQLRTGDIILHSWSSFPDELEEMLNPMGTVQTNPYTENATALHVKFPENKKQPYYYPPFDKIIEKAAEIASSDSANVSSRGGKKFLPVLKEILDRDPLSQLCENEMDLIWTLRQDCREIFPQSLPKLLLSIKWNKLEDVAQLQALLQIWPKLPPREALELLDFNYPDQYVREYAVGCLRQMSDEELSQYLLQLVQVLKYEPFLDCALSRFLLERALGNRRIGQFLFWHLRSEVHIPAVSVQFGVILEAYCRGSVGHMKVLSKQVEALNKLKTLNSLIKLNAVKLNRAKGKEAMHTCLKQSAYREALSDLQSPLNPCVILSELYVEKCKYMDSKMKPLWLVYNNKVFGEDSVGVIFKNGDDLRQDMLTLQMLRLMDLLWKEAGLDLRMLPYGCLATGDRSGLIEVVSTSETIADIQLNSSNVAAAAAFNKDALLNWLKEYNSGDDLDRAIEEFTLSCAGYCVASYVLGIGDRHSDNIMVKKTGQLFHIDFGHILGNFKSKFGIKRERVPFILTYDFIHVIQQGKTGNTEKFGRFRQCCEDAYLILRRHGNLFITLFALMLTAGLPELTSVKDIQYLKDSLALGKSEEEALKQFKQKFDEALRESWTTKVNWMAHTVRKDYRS
# UniProt Q13526, whole entry, looked up: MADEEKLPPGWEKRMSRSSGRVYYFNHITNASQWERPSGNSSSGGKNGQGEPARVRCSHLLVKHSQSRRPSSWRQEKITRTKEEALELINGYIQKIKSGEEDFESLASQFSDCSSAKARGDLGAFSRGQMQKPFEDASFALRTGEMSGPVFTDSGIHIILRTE
# UniProt Q10713: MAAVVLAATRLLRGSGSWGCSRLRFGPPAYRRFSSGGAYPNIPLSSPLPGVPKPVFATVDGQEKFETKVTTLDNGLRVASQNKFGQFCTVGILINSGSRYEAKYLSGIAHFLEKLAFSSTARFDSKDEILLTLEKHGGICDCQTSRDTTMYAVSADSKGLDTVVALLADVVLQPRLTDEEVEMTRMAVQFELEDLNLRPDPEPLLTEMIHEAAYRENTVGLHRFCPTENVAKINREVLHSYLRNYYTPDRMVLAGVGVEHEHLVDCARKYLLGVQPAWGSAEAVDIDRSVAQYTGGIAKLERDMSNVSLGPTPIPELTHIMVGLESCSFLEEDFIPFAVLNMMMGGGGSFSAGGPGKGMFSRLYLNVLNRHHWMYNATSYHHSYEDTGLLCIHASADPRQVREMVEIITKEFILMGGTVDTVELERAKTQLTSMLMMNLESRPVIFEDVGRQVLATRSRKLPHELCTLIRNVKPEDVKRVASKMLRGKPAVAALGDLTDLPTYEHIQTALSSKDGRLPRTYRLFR
# UniProt Q9Y263: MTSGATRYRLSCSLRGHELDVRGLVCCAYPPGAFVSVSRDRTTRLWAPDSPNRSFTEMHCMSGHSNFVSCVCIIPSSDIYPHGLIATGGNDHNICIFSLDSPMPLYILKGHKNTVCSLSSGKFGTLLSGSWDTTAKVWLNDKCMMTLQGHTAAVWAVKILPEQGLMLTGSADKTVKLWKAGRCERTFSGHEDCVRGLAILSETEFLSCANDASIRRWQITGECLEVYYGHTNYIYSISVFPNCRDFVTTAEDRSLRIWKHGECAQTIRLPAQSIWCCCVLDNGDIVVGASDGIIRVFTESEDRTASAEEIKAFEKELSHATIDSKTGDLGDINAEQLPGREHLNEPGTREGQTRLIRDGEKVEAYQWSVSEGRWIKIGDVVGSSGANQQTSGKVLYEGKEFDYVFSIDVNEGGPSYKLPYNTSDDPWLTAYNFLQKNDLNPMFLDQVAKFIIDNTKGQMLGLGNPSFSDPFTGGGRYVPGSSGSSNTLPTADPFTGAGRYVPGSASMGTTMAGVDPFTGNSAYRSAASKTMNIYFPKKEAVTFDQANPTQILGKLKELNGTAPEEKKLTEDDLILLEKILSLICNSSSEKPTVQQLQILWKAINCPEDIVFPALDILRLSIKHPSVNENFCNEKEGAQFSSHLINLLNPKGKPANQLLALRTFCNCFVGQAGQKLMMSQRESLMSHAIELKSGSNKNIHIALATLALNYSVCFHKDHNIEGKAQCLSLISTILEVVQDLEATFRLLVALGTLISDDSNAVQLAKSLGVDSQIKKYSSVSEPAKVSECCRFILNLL
# UniProt Q99570, whole entry, looked up: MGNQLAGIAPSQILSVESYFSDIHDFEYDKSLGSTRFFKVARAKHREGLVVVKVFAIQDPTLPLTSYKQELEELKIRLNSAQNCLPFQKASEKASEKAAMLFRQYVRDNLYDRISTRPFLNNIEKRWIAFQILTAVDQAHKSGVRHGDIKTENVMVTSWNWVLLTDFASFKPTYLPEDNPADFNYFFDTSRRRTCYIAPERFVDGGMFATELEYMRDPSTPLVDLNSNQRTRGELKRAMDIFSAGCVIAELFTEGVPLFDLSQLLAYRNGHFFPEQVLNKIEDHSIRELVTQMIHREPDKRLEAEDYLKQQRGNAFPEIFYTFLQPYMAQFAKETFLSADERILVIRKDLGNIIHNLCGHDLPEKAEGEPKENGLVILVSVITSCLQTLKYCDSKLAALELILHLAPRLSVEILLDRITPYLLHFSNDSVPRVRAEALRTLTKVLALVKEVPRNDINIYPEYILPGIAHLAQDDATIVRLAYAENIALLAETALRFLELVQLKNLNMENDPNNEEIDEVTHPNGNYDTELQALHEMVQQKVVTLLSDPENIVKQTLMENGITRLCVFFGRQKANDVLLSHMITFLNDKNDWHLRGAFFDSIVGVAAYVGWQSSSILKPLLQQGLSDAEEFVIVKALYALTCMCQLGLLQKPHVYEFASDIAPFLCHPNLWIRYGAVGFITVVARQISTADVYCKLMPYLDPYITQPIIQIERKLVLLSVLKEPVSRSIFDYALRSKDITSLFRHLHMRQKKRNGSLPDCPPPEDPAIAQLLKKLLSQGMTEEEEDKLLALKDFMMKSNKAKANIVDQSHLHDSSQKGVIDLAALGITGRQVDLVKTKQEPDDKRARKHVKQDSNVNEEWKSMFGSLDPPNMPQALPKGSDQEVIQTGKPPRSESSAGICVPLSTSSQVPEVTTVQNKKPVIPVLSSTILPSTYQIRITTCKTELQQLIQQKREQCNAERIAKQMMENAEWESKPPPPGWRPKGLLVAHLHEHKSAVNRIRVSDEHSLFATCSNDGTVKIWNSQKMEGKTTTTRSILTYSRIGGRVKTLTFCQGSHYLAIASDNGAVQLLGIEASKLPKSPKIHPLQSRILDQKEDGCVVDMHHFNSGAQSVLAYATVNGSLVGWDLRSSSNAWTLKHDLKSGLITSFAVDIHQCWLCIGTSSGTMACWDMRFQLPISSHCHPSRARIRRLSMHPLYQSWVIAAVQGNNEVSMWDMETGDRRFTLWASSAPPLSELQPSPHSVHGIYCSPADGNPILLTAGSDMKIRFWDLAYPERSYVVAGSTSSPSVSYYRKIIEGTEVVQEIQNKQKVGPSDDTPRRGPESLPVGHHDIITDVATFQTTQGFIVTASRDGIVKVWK
# The other results are listed elsewhere or left out.
# Compound: CC1Cc2ccccc2N1C(=O)C1CCCN(C1)C(=O)CCl (mixture of isomers) [TRIM25 ligand 11 (diastereomer mixture)]
# Assay: probe-labelled cysteine peptide fold change vs DMSO (competition) (log2 fold change); higher = less target engagement (more negative = stronger competition)
# Conditions: THP-1, incubation time: 4 h
# 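Further: competitive chemoproteomic profiling in live THP-1 cells with an iodoacetamide desthiobiotin (IA-DTB) probe, comparing probe-labelled peptide intensities in compound-treated cells against DMSO-treated controls.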
Target,probe-labelled cysteine peptide fold change (10 µM),probe-labelled cysteine peptide fold change (50 µM)
PIP5K1C_O60331_225_FYGLYCVQSGGK (UniProt O60331),0.0274,0.2
PLIN3_O60664_39_VASMPLISSTCDMVSAAYASTK (UniProt O60664),-0.0047,0.0556
PIK3CD_O00329_500_HSECVHVTEEEQLQLR (UniProt O00329),-0.0604,0.0253
PIK3CD_O00329_355_LVVQAGLFHGNEMLCK (UniProt O00329),-0.164,0.0896
PLIN3_O60664_341_DIAQQLQATCTSLGSSIQGLPTNVK (UniProt O60664),-0.0581,-0.0803
PKM_P14618_424_CCSGAIIVLTK (UniProt P14618),0.0363,0.0349
PNO1_Q9NRX1_64_RPVFPPLCGDGLLSGK (UniProt Q9NRX1),0.00892,-0.202
PNKD_Q8N490_329_KGTCPSTLGEER (UniProt Q8N490),-0.0643,-0.239
PLEC_Q15149_992_VLSSSGSEAAVPSVCFLVPPPNQEAQEAVTRLEAQHQALVTLWHQLHVDMK (UniProt Q15149),-0.415,-0.207
PLEC_Q15149_545_LQMEAGLCEEQLNQADALLQSDVR (UniProt Q15149),0.123,0.0152
PLCB3_Q01970_1176_LLAQLAQECQEQR (UniProt Q01970),0.234,-0.0169
PIK3CB_P42338_626_EYAVGCLR (UniProt P42338),0.19,0.113
PNKP_Q96T60_437_YVQCAR (UniProt Q96T60),0.11,0.0866
PNO1_Q9NRX1_64_RPVFPPLCGDGLLSGKEETR (UniProt Q9NRX1),-0.221,-0.419
PIN1_Q13526_57_CSHLLVK (UniProt Q13526),-0.0441,-0.111
PKN1_Q16512_662_DEVESLMCEK (UniProt Q16512),0.16,0.0355
PLCB3_Q01970_358_QALLWGCR (UniProt Q01970),0.105,0.0907
PMPCA_Q10713_142_HGGICDCQTSR (UniProt Q10713),-0.00383,0.228
PLEC_Q15149_317_CDNFTSSWR (UniProt Q15149),0.0602,0.256
PLXNC1_O60486_1217_IPENESADVCR (UniProt O60486),0.0621,0.204
PLEC_Q15149_3336_CRPDQLTGLSLLPLSEK (UniProt Q15149),-0.00331,-0.146
PLAA_Q9Y263_605_AINCPEDIVFPALDILR (UniProt Q9Y263),-0.0621,-0.002

Target,probe-labelled cysteine peptide fold change (10 µM),probe-labelled cysteine peptide fold change (50 µM)
PLOD3_O60568_379_DMAMDLCR (UniProt O60568),-0.0718,0.225
PML_P29590_204_TPTLTSIYCR (UniProt P29590),-0.101,-0.113
PLCB2_Q00722_296_GQLSPEGMVWFLCGPENSVLAQDK (UniProt Q00722),0.0529,0.0248
PIK3CB_P42338_287_ALPHFILVECCK (UniProt P42338),-0.0516,-0.0501
PLBD2_Q8NHP8_244_IKPSLGSGSCSALIK (UniProt Q8NHP8),-0.0872,-0.441
PIK3R4_Q99570_759_NGSLPDCPPPEDPAIAQLLK (UniProt Q99570),-0.0253,0.126
PML_P29590_389_LQDLSSCITQGK (UniProt P29590),-0.0914,-0.0452
PLCB2_Q00722_188_RVEAALSACHLPK (UniProt Q00722),0.0409,-0.0651
PLK1_P53350_544_LILCPLMAAVTYIDEKR (UniProt P53350),-0.228,0.028
PLEKHF2_Q9H8W4_186_CGFVVCGPCSEK (UniProt Q9H8W4),0.0588,0.246
PINX1_Q96BK5_94_NNHLGLGATINNEDNWIAHQDDFNQLLAELNTCHGQETTDSSDKK (UniProt Q96BK5),0.0197,-0.00386
PLPBP_O94903_86_ILSLCPEIK (UniProt O94903),-0.141,0.0653
PMPCA_Q10713_225_FCPTENVAK (UniProt Q10713),0.0792,0.0898
PLEC_Q15149_3295_VPLDVACAR (UniProt Q15149),0.0179,-0.124
PKM_P14618_152_CDENILWLDYK (UniProt P14618),0.0775,0.0033
PLOD2_O00469_576_ACDELVEEMEHYGK (UniProt O00469),-0.0126,-0.0599
PKN1_Q16512_662_KGDIVARDEVESLMCEK (UniProt Q16512),-0.0633,0.00513
PIR_O00625_79_GFETVSYLLEGGSMAHEDFCGHTGK (UniProt O00625),-0.0378,-0.172
PLEKHF1_Q96S99_129_QEWISHIEECVR (UniProt Q96S99),0.139,0.265
PLEC_Q15149_3295_SHRVPLDVACAR (UniProt Q15149),-0.0879,-0.0747
PLCB3_Q01970_360_CVELDVWK (UniProt Q01970),0.000957,0.159
PIK3C2A_O00443_541_HLYQIEKPCK (UniProt O00443),-0.358,-0.353

Target,probe-labelled cysteine peptide fold change (10 µM),probe-labelled cysteine peptide fold change (50 µM)
PLBD2_Q8NHP8_342_GCVLEWVR (UniProt Q8NHP8),-0.312,-0.00984
PLBD2_Q8NHP8_492_YNDFLHDPLSLCK (UniProt Q8NHP8),0.0201,0.0295
PLCL2_Q9UPR0_414_GWLSIDGFTNYLMSPDCYIFDPEHKK (UniProt Q9UPR0),0.11,-0.056
PMS1_P54277_725_DEPCLIHNLR (UniProt P54277),-0.0476,-0.111
PKM_P14618_474_GIFPVLCKDPVQEAWAEDVDLR (UniProt P14618),-0.373,-0.303
PLCG2_P16885_496_HYCAIADAK (UniProt P16885),-0.0451,0.0973
PMM2_O15305_9_AAPGPALCLFDVDGTLTAPR (UniProt O15305),0.042,0.167
PLEKHA2_Q9HB19_191_SQSYIPTSGCR (UniProt Q9HB19),-0.043,-0.184
PLEC_Q15149_3821_EALEAESAWCYLYGTGSVAGVYLPGSR (UniProt Q15149),0.0207,-0.00398
PIK3R4_Q99570_1180_FQLPISSHCHPSR (UniProt Q99570),0.163,0.0337
PIK3R1_P27986_167_QLLDCDTPSVDLEMIDVHVLADAFKR (UniProt P27986),0.0342,-0.148
PIK3R2_O00459_50_CPQSVGWMPGLNER (UniProt O00459),-0.193,-0.169
PNKD_Q8N490_347_THCLALQEALGPGPGPTGDDDYSR (UniProt Q8N490),0.0381,-0.298
PIP5K1C_O60331_306_DCLVLESFK (UniProt O60331),0.0441,0.118
PLS3_P13797_33_VDLNSNGFICDYELHELFK (UniProt P13797),0.103,0.0703
PLK1_P53350_372_ETGEVVDCHLSDMLQQLHSVNASKPSER (UniProt P53350),0.122,-0.22
PM20D2_Q8IYS1_14_MRPGGERPVEGGACNGR (UniProt Q8IYS1),-0.0138,-0.0287
PKM_P14618_423+424_CCSGAIIVLTK (UniProt P14618),-0.0398,-0.112
PLCG1_P19174_646_CNEFEMR (UniProt P19174),0.0609,-0.175
PIK3CB_P42338_392_NDHIWNEPLEFDINICDLPR (UniProt P42338),-0.172,0.347
PLCG2_P16885_791_SDELSFCR (UniProt P16885),0.0473,0.0374
PLAA_Q9Y263_788_VSECCR (UniProt Q9Y263),-0.0123,0.109

# Whole records, quoted from the list. Values in the order: probe-labelled cysteine peptide fold change (10 µM)	probe-labelled cysteine peptide fold change (50 µM)
# PLCG2_P16885_791_SDELSFCR (UniProt P16885) in the list: 0.0473	0.0374
# PMS1_P54277_725_DEPCLIHNLR (UniProt P54277) in the list: -0.0476	-0.111
# PLCG1_P19174_646_CNEFEMR (UniProt P19174) in the list: 0.0609	-0.175
# PLEKHA2_Q9HB19_191_SQSYIPTSGCR (UniProt Q9HB19) in the list: -0.043	-0.184

# Later entries.

Target,probe-labelled cysteine peptide fold change (10 µM),probe-labelled cysteine peptide fold change (50 µM)
PIK3R4_Q99570_955_REQCNAER (UniProt Q99570),-0.00312,-0.0264
PLRG1_O43660_468_VHAAVQPGSLDSESGIFACAFDQSESR (UniProt O43660),0.297,0.074
PLEC_Q15149_530_SEFERLECLQR (UniProt Q15149),-0.161,-0.218
PMS1_P54277_102_GEALGSICCIAEVLITTR (UniProt P54277),-0.341,0.363
PLCG1_P19174_106_YQEDPAFRPDQSHCFVILYGMEFR (UniProt P19174),0.0121,0.21
PLS3_P13797_167_AVGDGIVLCK (UniProt P13797),-0.157,0.124
PIK3CB_P42338_116_SCDPGEK (UniProt P42338),-0.0422,-0.082
PMVK_Q15126_92_RQADPGFFCR (UniProt Q15126),-0.175,-0.0533
PLXNB2_O15031_770_SDCSLCR (UniProt O15031),-0.0206,0.183
PLEKHB2_Q96CS7_75_DCMLQIVCR (UniProt Q96CS7),0.262,0.396
PLD3_Q8IV08_487_SQLEAIFLRDWDSPYSHDLDTSADSVGNACR (UniProt Q8IV08),-0.137,-0.248
PLCG2_P16885_849_QIIEDNPLGSLCR (UniProt P16885),-0.0232,0.105
PLXNB2_O15031_948_FGAQLQCVTGPQATR (UniProt O15031),0.149,0.0289
PIP4P1_Q86T03_177_VICGHCK (UniProt Q86T03),-0.00656,0.0984
PIK3R1_P27986_498_IFEEQCQTQER (UniProt P27986),-0.0877,-0.0568
PIK3CB_P42338_551_EILDRDPLSQLCENEMDLIWTLR (UniProt P42338),-0.1,-0.0953
PLXNB2_O15031_486_DSQDPYCGWCVVEGR (UniProt O15031),-0.0143,0.0368
PKM_P14618_326_AGKPVICATQMLESMIK (UniProt P14618),-0.117,-0.199
PMPCB_O75439_419_TNMLLQLDGSTPICEDIGR (UniProt O75439),0.0199,0.0376
